Experimental data as given in paper doi:10.1101/706473.
These are yes or no findings as the source states them, for the method shown. Some binding calls cover weakened binding; strength is not graded here.

How the values were obtained:
[1] = molecular target: T1, Homothorax, full-length isoform (Hth^FL) (D. melanogaster) (UniProt O46339); experiment: co-purification
T1 sequence: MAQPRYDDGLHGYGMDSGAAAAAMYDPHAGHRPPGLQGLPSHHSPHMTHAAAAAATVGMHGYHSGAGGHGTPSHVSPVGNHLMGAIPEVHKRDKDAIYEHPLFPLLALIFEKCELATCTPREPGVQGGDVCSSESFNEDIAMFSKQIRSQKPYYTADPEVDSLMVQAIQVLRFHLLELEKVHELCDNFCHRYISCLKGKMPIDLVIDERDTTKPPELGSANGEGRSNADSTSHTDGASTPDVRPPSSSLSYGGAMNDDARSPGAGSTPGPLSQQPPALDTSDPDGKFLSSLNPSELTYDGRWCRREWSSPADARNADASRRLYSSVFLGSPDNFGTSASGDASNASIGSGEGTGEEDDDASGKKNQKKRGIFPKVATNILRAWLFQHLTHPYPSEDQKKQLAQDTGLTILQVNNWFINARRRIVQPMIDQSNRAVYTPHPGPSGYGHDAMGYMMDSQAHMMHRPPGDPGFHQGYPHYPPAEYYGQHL

[2] = molecular target: T2, Hth HM-domain (amino acids 1-242), Hth^HM (D. melanogaster) (UniProt O46339); experiment: co-purification
T2 sequence: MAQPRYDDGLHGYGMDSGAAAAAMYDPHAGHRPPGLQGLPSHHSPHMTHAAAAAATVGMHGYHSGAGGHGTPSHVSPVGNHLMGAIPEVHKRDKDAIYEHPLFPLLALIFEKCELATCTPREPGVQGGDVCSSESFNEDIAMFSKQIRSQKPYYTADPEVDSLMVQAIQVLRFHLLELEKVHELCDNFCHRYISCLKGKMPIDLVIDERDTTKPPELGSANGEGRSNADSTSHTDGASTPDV

binding [1]: binds | binding [2]: binds
B1: Extradenticle (Exd), full-length (protein, UniProt P40427 1-376)
chain: MEDPNRMLAHTGGMMAPQGYGLSGQDDGQNAGSENEVRKQKDIGEILQQIMSISEQSLDEAQARKHTLNCHRMKPALFSVLCEIKEKTVLSIRNTQEEEPPDPQLMRLDNMLIAEGVAGPEKGGGGAAAASAAAASQGGSLSIDGADNAIEHSDYRAKLAQIRQIYHQELEKYEQACNEFTTHVMNLLREQSRTRPITPKEIERMVQIIHKKFSSIQMQLKQSTCEAVMILRSRFLDARRKRRNFSKQASEILNEYFYSHLSNPYPSEEAKEELARKCGITVSQVSNWFGNKRIRYKKNIGKAQEEANLYAAKKAAGASPYSMAGPPSGTTTPMMSPAPPQDSMGYPMGSGGYDQQQPYDNSMGGYDPNLHQDLSP
